# Results of single-concentration screens

Chains of the proteins cited; added tags and fusions are not shown. Residues count along the entry.
UniProt Q4DA54, 1-478: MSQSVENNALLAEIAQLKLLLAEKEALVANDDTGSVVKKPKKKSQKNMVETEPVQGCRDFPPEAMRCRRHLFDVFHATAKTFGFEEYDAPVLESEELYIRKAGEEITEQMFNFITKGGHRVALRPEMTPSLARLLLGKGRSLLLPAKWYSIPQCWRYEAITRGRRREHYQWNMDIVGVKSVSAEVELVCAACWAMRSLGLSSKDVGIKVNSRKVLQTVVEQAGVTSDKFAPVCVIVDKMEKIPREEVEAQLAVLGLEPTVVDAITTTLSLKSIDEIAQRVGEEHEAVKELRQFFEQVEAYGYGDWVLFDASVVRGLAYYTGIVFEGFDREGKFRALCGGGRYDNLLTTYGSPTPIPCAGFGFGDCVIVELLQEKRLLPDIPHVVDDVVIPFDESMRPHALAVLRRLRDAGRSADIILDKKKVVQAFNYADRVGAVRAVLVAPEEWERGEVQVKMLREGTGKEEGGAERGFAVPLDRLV
UniProt P9WNZ1, whole entry: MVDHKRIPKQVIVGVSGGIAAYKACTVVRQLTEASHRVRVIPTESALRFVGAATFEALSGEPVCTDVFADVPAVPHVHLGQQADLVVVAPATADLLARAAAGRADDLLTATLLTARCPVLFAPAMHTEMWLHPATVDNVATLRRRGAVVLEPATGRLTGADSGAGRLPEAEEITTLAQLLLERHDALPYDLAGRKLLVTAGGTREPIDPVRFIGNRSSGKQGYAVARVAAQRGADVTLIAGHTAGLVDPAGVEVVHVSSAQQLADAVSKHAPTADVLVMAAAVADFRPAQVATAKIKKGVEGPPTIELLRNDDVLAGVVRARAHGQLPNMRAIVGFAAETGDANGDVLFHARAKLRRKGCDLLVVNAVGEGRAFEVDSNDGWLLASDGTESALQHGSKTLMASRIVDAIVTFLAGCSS
UniProt A4I591, 1-473: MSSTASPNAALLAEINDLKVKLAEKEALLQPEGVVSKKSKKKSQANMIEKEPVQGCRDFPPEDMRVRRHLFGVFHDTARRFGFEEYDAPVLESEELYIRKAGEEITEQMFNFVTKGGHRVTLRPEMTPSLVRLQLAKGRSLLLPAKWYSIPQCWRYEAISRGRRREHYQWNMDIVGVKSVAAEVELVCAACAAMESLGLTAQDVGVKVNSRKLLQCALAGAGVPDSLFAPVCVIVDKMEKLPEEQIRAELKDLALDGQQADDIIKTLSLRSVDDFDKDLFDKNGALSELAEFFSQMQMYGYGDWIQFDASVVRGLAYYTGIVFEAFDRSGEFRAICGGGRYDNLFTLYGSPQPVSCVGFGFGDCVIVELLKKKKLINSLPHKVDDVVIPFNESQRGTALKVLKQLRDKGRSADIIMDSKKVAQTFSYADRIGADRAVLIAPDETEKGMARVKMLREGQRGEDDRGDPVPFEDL

A: 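Enzyme assay of histidyl-tRNA synthetase; the read-out is not stated. Target: Histidine-tRNA ligase, Trypanosoma cruzi CL Brener (UniProt Q4DA54). Compounds at 30 µM. The record gives no direction; compounds that gave an IC50 in retests scored well above the rest, so higher reads as stronger inhibition. About 69,000 compounds were tested under these conditions; 0.045% (about 31) showed 50% or more at least once.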
B: 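Coenzyme A biosynthesis protein CoaBC, Mycobacterium tuberculosis (UniProt P9WNZ1). Enzyme assay of CoaBC with a phosphate dye (Biomol Green) read at 650 nm. Compounds at 30 µM. Higher reads as stronger inhibition, judged from the few compounds that gave an IC50. Most strong results did not repeat in a second test. About 67,000 compounds were tested under these conditions; 0.06% (about 40) showed 50% or more at least once.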
C: 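Enzyme assay of histidyl-tRNA synthetase; the read-out is not stated. Target: Histidine-tRNA ligase, Leishmania infantum (UniProt A4I591). Compounds at 30 µM. Higher reads as stronger inhibition (inferred: compounds with an IC50 in retests scored well above the rest). The assay is labelled LdHisRS but filed under L. infantum. About 69,000 compounds were tested under these conditions; 0.6% (about 410) showed 50% or more at least once.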

The filed quantity is “Percent Effect” (%).
How 0% and 100% were set is not recorded. Most values in the screen are low, and negative values occur.
This is an unselected part of the compounds tested.
Two or more numbers in one place are separate tests of the same structure; such repeats can differ widely.
A dash means the value is not listed here; it may have been measured.

compound,A,B,C
CC(C)(C)NC(=O)c1ccn(COc2c(Cl)cccc2Cl)n1,-1.339%,0.7653%,6.173%
CCCc1nnc(C(=O)N(C)Cc2ccc(OC)cc2)o1,10.99%,6.79%,4.301%
CC(C)(CNc1cn[nH]c(=O)c1Cl)c1ccc2c(c1)OCCO2,-36.27%,8.293%,10%
O=C(c1ccc2c(c1)CCCC2)N1CCn2ncnc2C1,2.571%,10.82% and 31.96%,6.711%
Cc1c(OCC(=O)NCc2ccccc2Cl)c(=O)ccn1C,-0.5848%,0.7576%,10.53%
Cc1ccc(S(=O)(=O)c2ncccc2CN2CCCCC2)cc1,-1.754%,4.04%,10.53%
Cc1cc(CN2CCc3nn(C)c(=O)cc3C2)on1,1.626%,7.173%,102.9%
COc1ccc2c(c1)OCC(CNc1cc(N)nc(SC)n1)C2 (stereo not shown),12.35%,2.703%,30.11%
Cc1nc(-c2c(-c3ccccc3)ncn2[C@H]2C[C@@H](C(=O)O)N(C)C2)co1,3.743%,5.217%,12.04%
c1cc(CNc2ncc(-c3cnccn3)c([C@@H]3CCCO3)n2)ccn1,10.77%,0.7126%,15.49%
CNC(C(=O)OC)c1cc(F)ccc1F (stereo not shown),3.429%,6.452%,5.769%
CC(=O)NC1CC(C)(C)Cc2c1cnn2-c1cccc(F)c1 (stereo not shown),3.279%,5.011%,5.263%
COc1ccc(NC(=O)NC(C)c2nc[nH]n2)cc1Cl (stereo not shown),1.163%,1.288%,14.75%
CCCc1nccn1-c1cccc(C(C)O)c1 (stereo not shown),10.53%,-,27.5%
CO[C@@H]1CCN(S(=O)(=O)N(C)C)[C@@H]2CN(Cc3ccncc3)C[C@@H]21,4.813%,10%,19.66%
c1coc(-c2noc(CN3CCc4cncnc4C3)n2)c1,14.12%,4.604%,38.53%
O=C1OCCN1CC(=O)N1C[C@H]2CC[C@@H]1CN(C(=O)c1cccnc1)C2,5.102%,7.559%,0%
CCn1cc(-c2n[nH]c(=O)n2-c2ccc3c(c2)OCO3)c(C)n1,-1.064%,3.893%,27.14%
N#Cc1ccccc1CN1C[C@@H]2CC[C@H](C1)N(Cc1cscn1)C2=O,2.5%,-4.051%,25%
Cc1cccc(N2CCc3ncnc(C4CC4)c3CC2)n1,7.097%,3.623%,15.15%
CCc1c(O)nc(SCC(=O)N(CC)CC)n(C(C)CC)c1=O (stereo not shown),3.247%,-3.748%,6.452%
CC(C)(C)c1nnc(CN2CCN(CC(O)c3ccccc3)CC2)o1 (stereo not shown),3.008%,-2.314%,-19.1%
CCc1[nH]c2c(CNC(=O)[C@@H]3CCCN3C)cc(C)cc2c1C,-8.696%,0.1242%,15.83%
CN(Cc1cc2n(n1)CCNC2)Cc1cc(-c2ccccn2)no1,8.28%,-,-7.042%
Cc1ccc(C(=O)N2C[C@H]3CCC[C@@]3(COc3ccccn3)C2)nc1,7.438%,5.882%,16.36%
O=C(NCCN1CCCC(CO)C1)c1ccc2sccc2c1 (stereo not shown),-3.226%,2.657%,21.21%
CCn1nc2c(cc1=O)CN(CC(=O)Nc1nc(C)c(C)s1)CC2,2.662%,6.588%,15.62%
CCNc1ncc(C(=O)NCc2csc(-c3ncccn3)n2)cn1,-3.704%,3.804%,15.69%
CCn1nc(C)c(CN(CCOC)C(=O)c2ccc(=O)[nH]n2)c1C,7.955%,0.2141%,13.33%
Cc1noc(C)c1S(=O)(=O)NC(=O)COc1cccc(C(C)C)c1,0.2933%,2.632%,4.63%
COc1ccc(C2OC(COc3ccc(C)cc3)=NN2C(C)=O)cc1 (stereo not shown),1.508%,-2.046%,13.48%
CCC(C)(O)CNc1ccc(S(=O)(=O)C(F)F)cc1 (stereo not shown),6.349%,4.339%,10.96%
C=Cc1ccc(C(=O)N2CCCC(Nc3ccc(F)c(F)c3)C2)cc1 (stereo not shown),-3.518%,5.428%,12%
COc1ccc(Cl)cc1CS(=O)(=O)CC(=O)N(C)Cc1ccccc1F,-5.882%,3.24%,11.57%
O=C1C(Sc2nc(=O)ccn2C2CC2)CCN1c1ccccc1 (stereo not shown),0%,-0.3984%,8.219%
Cc1cc(C)n2nc(CC(=O)N3CC[C@H]4NCCC[C@]4(CO)C3)nc2n1,0%,0.7371%,6.452%
Cc1nc(C(=O)N2CCN(S(=O)(=O)N(C)C)CC2)c(-c2ccccc2)s1,-2.439%,1.266%,15.79%
Cc1nc(-c2cc(C(=O)NCCN3CCOCC3)c3ccccn23)cs1,4.294%,0.128%,17.28%
CS(=O)(=O)CCCN(CCCO)C1CCc2ccccc21 (stereo not shown),5.521%,4.481%,12.35%

5 of the entries, repeated:

* CCn1nc(C)c(CN(CCOC)C(=O)c2ccc(=O)[nH]n2)c1C | A: 7.955%; B: 0.2141%; C: 13.33%
* COc1ccc2c(c1)OCC(CNc1cc(N)nc(SC)n1)C2 (stereo not shown) | A: 12.35%; B: 2.703%; C: 30.11%
* COc1ccc(Cl)cc1CS(=O)(=O)CC(=O)N(C)Cc1ccccc1F | A: -5.882%; B: 3.24%; C: 11.57%
* COc1ccc(NC(=O)NC(C)c2nc[nH]n2)cc1Cl (stereo not shown) | A: 1.163%; B: 1.288%; C: 14.75%
* c1coc(-c2noc(CN3CCc4cncnc4C3)n2)c1 | A: 14.12%; B: 4.604%; C: 38.53%

The values are deposited in ChEMBL (CHEMBL3988442, “University of Dundee, Small-Polar-MMV Screening Library” (2021)).